# Laboratory results as given in PubChem BioAssay AID1671190 (National Center for Advancing Translational Sciences (NCATS), 2021).
# Sequences of proteins named here, by UniProt entry; tags and fusion partners are left off. A change or cut given only in a name is not applied to a line headed by its entry.
# UniProt P18054: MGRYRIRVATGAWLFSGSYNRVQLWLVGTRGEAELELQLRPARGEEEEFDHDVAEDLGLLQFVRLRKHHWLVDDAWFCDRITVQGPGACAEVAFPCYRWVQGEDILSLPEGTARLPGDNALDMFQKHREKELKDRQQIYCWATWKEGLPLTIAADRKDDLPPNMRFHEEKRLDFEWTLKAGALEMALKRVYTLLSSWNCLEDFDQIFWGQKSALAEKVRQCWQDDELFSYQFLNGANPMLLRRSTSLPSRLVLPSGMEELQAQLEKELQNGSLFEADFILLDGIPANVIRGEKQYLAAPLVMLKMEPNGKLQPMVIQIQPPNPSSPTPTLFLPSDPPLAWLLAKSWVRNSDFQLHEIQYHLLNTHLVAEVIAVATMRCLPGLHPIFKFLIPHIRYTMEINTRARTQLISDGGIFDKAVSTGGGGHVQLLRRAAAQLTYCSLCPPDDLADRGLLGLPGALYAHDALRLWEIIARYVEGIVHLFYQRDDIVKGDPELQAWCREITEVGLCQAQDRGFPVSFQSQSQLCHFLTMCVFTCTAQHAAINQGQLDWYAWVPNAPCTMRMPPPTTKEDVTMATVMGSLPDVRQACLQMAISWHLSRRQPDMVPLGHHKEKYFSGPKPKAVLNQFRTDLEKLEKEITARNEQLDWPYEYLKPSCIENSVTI
# Screen size: about 580,000 compounds; about 6,100 (1.1%) were called active. Inconclusive means that the source gave no clear call. Such entries were picked first, then a sample of the others. Calls follow the shape of the dose curve; as a rule, active = well fitted inhibition curve with a large enough effect; inconclusive = small, poorly fitted or top-dose-only effect, or another doubt; inactive = no such curve, though single readings can be large or run the other way. Potencies of inconclusive entries are doubtful fits and often do not repeat.
# Molecular target: Polyunsaturated fatty acid lipoxygenase ALOX12 (Homo sapiens) (UniProt P18054)
# Test: Primary qHTS assay for inhibitors of human arachidonate 12S-lipoxygenase (ALOX12): Round 2
# Conditions: purified 12hLO, xylenol orange hydroperoxide absorbance; activity change, negative = inhibition: at 108 µM (top of the series) unless noted
# Method in brief: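 Purified human 12hLO at 150 nM in 25 mM Hepes, 0.01% Triton X-100, pH 7.0, preincubated 15 min at room temperature with compound. Reaction started with 40 uM arachidonic acid, 30 min at room temperature. Hydroperoxide measured by Fe-xylenol orange, 573/405 nm absorbance ratio.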
# % is scaled to controls: 0 for no effect and ±100 for the full control effect; potency is read from the fitted curve at half-maximal effect.
SMILES,"activity change, negative = inhibition",Potency
CCc1cccc(C)c1NC(=O)COC(=O)C1CCN(S(=O)(=O)c2ccccc2)CC1,inactive: 6%,–
C=CCNc1nc(-c2c(N)n(CCC)c(=O)n(C)c2=O)cs1,–,"inconclusive: 4.47 µM [inhibitor, partial curve, poor fit]"
COc1ccc(Nc2nnc(-n3nc(C)cc3C)c3ccccc23)cc1,inactive: -10.4%,–
COc1ccccc1N=Nc1ccc(O)c2ncccc12,–,"inconclusive: 5.01 µM [inhibitor, full curve, poor fit]"
Cc1cc(C)c2nc(SCCc3ccccc3)nc(C)c2c1,inconclusive: -33% [inhibitor],–
NC(=O)C1CC(O)CN1 (stereo unspecified),–,"inconclusive: 6.31 µM [inhibitor, full curve, poor fit]"
Cc1ccc([C@H]2N[C@]3(CCCN(Cc4ccc(F)cc4)C3=O)[C@H]3C(=O)N(Cc4ccccc4)C(=O)[C@@H]23)cc1,–,active: 14.1 µM
CC(C)N1CC2(C1)C(=O)N(Cc1cccc(Cl)c1)C(=O)[C@@H]1C[C@@H](O)CN12,inconclusive: -32.2% [inhibitor] [at 176 µM],–
Cc1onc(-c2ccccc2Cl)c1C(=O)Oc1cc(N)n(S(=O)(=O)c2ccc(F)cc2)n1,–,"inconclusive: 126 µM [inhibitor, single point]"
O=C(/C=C/c1ccco1)Oc1ccc(Sc2ccc(OC(=O)/C=C/c3ccco3)cc2)cc1,–,active: 11.2 µM
COc1ccc(NC(=O)c2c(NCc3cccs3)sc3c2CCCCC3)c(OC)c1,–,"inconclusive: 5.62 µM [inhibitor, full curve, poor fit]"
Cc1ccc(NCC(=O)N/N=C\C(Br)=C\c2ccccc2)cc1,–,"inconclusive: 31.6 µM [inhibitor, single point]"
Cc1ccsc1C1NC(=O)c2c(sc3c2CCN(C)C3)N1 (stereo unspecified),inactive: 194% [at 57.4 µM],–
CN1CCN(C(=S)NCCc2ccccc2)CC1,–,"inconclusive: 1.58 µM [inhibitor, partial curve, poor fit]"
CCCC(=O)Nc1nc(-c2ccccc2)c(CC)s1,–,"inconclusive: 22.4 µM [inhibitor, partial curve, poor fit]"
N#Cc1ccc(C(=O)N2CCCCC2c2cc(C(=O)Nc3ccc4c(c3)OCO4)no2)cc1 (stereo unspecified),–,"inconclusive: 79.4 µM [inhibitor, single point]"
CN(C)c1ccc(C2NC(=O)c3ccccc3N2)cc1 (stereo unspecified),inactive: 48.2%,–
S=C(Nc1cccc(Cl)c1)NC1CC2CCCC(C1)N2C1CCCC1 (stereo unspecified),–,"inconclusive: 89.1 µM [inhibitor, single point]"
Cc1ccc(OCC(=O)NC(CC(C)C)C(=O)N(C)C)cc1 (stereo unspecified),–,"inconclusive: 39.8 µM [inhibitor, partial curve]"
Cc1cccc(CNc2cc(-c3ccoc3)ncn2)c1,–,active: 17.8 µM
Fc1ccccc1C1CC(c2ccco2)=Nc2ccccc2S1 (stereo unspecified),inactive: -24.7%,–
CO[C@H]1[C@H](NC(=O)CCc2cccnc2)c2ccccc2C12CCNCC2,–,"inconclusive: 14.1 µM [inhibitor, full curve]"
COc1ccc(Cn2c(=O)cc(N)n(-c3ccccc3C)c2=O)cc1,inactive: 165%,–

# Ordered by formula weight (smallest number first): some entries from above
SMILES,"activity change, negative = inhibition",Potency
NC(=O)C1CC(O)CN1 (stereo unspecified),–,"inconclusive: 6.31 µM [inhibitor, full curve, poor fit]"
Cc1cccc(CNc2cc(-c3ccoc3)ncn2)c1,–,active: 17.8 µM
CN(C)c1ccc(C2NC(=O)c3ccccc3N2)cc1 (stereo unspecified),inactive: 48.2%,–
Cc1cc(C)c2nc(SCCc3ccccc3)nc(C)c2c1,inconclusive: -33% [inhibitor],–
Cc1ccsc1C1NC(=O)c2c(sc3c2CCN(C)C3)N1 (stereo unspecified),inactive: 194% [at 57.4 µM],–
CO[C@H]1[C@H](NC(=O)CCc2cccnc2)c2ccccc2C12CCNCC2,–,"inconclusive: 14.1 µM [inhibitor, full curve]"
Cc1ccc(NCC(=O)N/N=C\C(Br)=C\c2ccccc2)cc1,–,"inconclusive: 31.6 µM [inhibitor, single point]"
CCc1cccc(C)c1NC(=O)COC(=O)C1CCN(S(=O)(=O)c2ccccc2)CC1,inactive: 6%,–
Cc1onc(-c2ccccc2Cl)c1C(=O)Oc1cc(N)n(S(=O)(=O)c2ccc(F)cc2)n1,–,"inconclusive: 126 µM [inhibitor, single point]"

# Continued.

SMILES,"activity change, negative = inhibition",Potency
CCOC(=O)N1CCN(CC(O)COc2ccc3c(c2)CCC3)CC1 (stereo unspecified),–,"inconclusive: 100 µM [inhibitor, single point]"
Cc1ccc(N2C(=O)N(CC(=O)NCc3ccccc3)c3ccccc3S2(=O)=O)c(C)c1,–,"inconclusive: 1.58 µM [inhibitor, full curve, poor fit]"
CN(Cc1ccccc1)C(=O)C[C@@H]1O[C@H](CNC(=O)c2ccc(N(C)C)cc2)[C@@H](O)[C@H]1O,inactive: 73.8%,–
COc1ccc(-c2csc(/C(C#N)=C/Nc3ccc4c(c3)OCCO4)n2)cc1,inactive: -16.8%,–
CC(C)(C)NC(=O)c1ccc2c(c1)CCCN2C(=O)c1ccc(Cl)cc1,–,"inconclusive: 89.1 µM [inhibitor, partial curve, poor fit]"
N#C/C(=C\C1=C(N2CCOCC2)C(=C/c2cccc([N+](=O)[O-])c2)/CC1)C(=O)Nc1ccccc1F,inactive: -12.4%,–
O=C(O)c1cc(N/N=C/c2c[nH]c3ccccc23)ccc1Cl,–,"inconclusive: 50.1 µM [inhibitor, single point]"
CCCCN1C(=O)[C@@H]2C[C@@H](O)CN2C2(CN(Cc3ccc(OC)cc3)C2)C1=O,inactive: 25.3% [at 176 µM],–
COC(=O)c1ccc(CNC(=O)NOCc2ccccc2)cc1,–,"inconclusive: 100 µM [inhibitor, single point]"
Cc1[nH]n(-c2ccccc2)c(=O)c1/C=N/NC(=O)c1ccccc1F,inactive: 0%,–
CC(=O)Nc1cccc(C(=O)/C=C/c2cccs2)c1,inactive: -2.47%,–
CCCOc1cccc(-c2cc(C(=O)NC(C)C)c3ccccc3n2)c1,–,"inconclusive: 100 µM [inhibitor, single point]"
COc1cccc(C(=O)NCCNC(=O)c2ccco2)c1,inactive: 15.5%,–
Cc1ccccc1Oc1cccc(C(=O)/C(C#N)=C/N(C)C)c1,–,"inconclusive: 44.7 µM [inhibitor, partial curve, poor fit]"
COc1ccc(-c2nc3ccccc3s2)cc1,–,"inconclusive: 70.8 µM [inhibitor, partial curve, poor fit]"
CN(C)CCN(C)c1cc2c(c3c1ccn3C)C1CCC2O1 (stereo unspecified),–,"inconclusive: 25.1 µM [inhibitor, single point]"
Cc1nc2ccccc2nc1Nc1cccc(Cl)c1,–,"inconclusive: 100 µM [inhibitor, partial curve, poor fit]"
O=C(NC1CCCC1)c1ccc2c(Cl)c3c(nc2c1)CCCC3,inactive: -6.7%,–
CSc1nc(-c2cccs2)c(C#N)c(=O)[nH]1,–,"inconclusive: 100 µM [inhibitor, partial curve, poor fit]"
COc1ccc(N(CC(=O)NCCSC(C)(C)C)S(C)(=O)=O)c(OC)c1,inactive: 3.74% [at 57.4 µM],–
O=C1/C(=C\c2cccs2)N=C(c2cccs2)N1Nc1ccccc1,–,"inconclusive: 7.94 µM [inhibitor, full curve]"
Fc1ccc(C(CCNCc2cccs2)c2ccco2)cc1 (stereo unspecified),–,"inconclusive: 126 µM [inhibitor, single point]"
COCCCNC(=O)c1cccc2c(-c3ccnn3C)coc12,–,"inconclusive: 39.8 µM [inhibitor, partial curve, poor fit]"
